{"sequences": {"note": "The chains behind the UniProt entries cited, without tags or fusion partners.", "UniProt Q9Y0H4": "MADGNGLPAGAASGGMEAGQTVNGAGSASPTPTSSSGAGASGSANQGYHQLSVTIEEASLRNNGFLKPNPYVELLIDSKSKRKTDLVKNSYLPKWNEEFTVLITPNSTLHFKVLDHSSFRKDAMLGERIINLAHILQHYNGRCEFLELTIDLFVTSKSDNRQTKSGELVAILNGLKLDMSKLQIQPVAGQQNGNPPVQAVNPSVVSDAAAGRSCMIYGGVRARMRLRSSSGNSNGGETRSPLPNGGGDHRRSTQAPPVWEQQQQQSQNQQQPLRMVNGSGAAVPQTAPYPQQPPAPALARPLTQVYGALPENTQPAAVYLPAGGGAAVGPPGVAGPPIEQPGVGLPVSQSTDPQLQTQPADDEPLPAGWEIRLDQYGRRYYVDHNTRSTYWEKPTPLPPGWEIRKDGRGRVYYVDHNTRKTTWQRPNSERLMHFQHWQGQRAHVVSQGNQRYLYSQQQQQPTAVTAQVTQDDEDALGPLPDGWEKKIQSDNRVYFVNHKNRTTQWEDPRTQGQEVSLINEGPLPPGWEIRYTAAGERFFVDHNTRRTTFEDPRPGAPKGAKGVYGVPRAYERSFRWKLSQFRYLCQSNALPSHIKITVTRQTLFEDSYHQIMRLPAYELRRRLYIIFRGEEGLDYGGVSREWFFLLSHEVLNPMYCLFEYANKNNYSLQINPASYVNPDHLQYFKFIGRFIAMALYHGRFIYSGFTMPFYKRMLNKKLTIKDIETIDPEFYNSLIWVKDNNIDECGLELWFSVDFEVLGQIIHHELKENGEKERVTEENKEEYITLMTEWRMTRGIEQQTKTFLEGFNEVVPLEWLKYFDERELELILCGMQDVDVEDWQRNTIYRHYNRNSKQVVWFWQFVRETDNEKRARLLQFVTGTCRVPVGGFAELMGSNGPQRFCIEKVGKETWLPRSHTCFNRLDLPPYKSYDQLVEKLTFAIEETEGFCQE", "UniProt Q24311": "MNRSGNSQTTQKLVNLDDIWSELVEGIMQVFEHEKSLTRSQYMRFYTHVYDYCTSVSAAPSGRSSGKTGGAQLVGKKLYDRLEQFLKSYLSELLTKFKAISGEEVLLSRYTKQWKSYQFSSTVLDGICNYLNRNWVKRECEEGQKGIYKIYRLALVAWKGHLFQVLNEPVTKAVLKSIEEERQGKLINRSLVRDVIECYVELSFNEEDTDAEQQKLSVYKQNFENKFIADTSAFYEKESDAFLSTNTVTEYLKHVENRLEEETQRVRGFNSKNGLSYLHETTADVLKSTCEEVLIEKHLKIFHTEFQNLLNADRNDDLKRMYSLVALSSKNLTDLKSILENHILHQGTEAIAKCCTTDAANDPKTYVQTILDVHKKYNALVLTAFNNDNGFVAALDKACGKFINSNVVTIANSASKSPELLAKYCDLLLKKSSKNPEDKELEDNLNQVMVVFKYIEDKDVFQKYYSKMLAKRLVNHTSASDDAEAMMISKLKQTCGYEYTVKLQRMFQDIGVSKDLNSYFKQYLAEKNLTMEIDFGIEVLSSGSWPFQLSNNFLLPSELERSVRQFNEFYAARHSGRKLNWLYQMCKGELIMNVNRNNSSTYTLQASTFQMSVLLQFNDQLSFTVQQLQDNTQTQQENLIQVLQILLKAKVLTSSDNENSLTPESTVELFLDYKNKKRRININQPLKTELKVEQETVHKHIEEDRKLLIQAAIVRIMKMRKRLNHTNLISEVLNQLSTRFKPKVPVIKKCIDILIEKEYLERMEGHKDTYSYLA"}, "source": "paper PMC6176938", "molecules": {"B1": {"name": "Vps11 (protein, UniProt Q8SX81 1-830)", "chain": "MDISVFEWKKVDLFNIIVVPFVKIPNTAEISCYCFPESKSSTEERNIKLVICDKNRNILIYLSNWECITFKSPSTRKAIALCSLTSNNSLATVTPDINNGIHIDIFDLNRLTKKQAAPIIASAYTQPSSTPLCLNADVIDDKLFALAIGLGNGDILLHYGKITKNFSANIRQHTVSGNAVNGIHFDFKTQPLDTTQIMFVTCVQGVYCFMLKEKCIMDTKFVLDNDKGNLNYRSIMCKAGGGEINDSMLVVGRADAVYCYTPEGRGPCFAIEGAKECLAWVGHYLIVGVKNSNLKQNATTLIVLDTENKIIVFQRQFQELFYVISENNFCYIVTNSGDTDACNMLMLEKNSIDVNIRLLVEKHMYNIALRLLHREGYTSSPETALVRFQYGNHLLQKGDFSRATQEFIKTIGFIKPYAVISKLLYSRYNTYLLNYLTEWKKKNESSSCHTRLIECCIKRDQIEHEMQQDDFKHYKSPAKIKHLATLSKMYFACTPSNQVPVEEEHLLHQLLEYGPASLAVDLTTYLNNITFENVKESKNILSFCSILADHNDYCAKMLAKIIEAFPVCDEKLLFYLLVFYFKLWRLDKVTSSFVSDFIKTHSLRMDKTIIVSRLYTFFNVTQRIHGHQKNTGTLHNETIDKCIENLIKNNPDVALNENLSKRSFLMMLKSSCSTEEIKAIKIKPIFKDRLLRSIVDSANELKLVENFNEKIKRSRSMLSLYTNNPIEFRNDKCDICREMLSMQSIYFLCQHSFHEECLNYKSTKRQEKFLCIICKTRNLLSPKHSSNFSCDSSDTIAVLAKIVSIGNKLETKLMIRGRQKSDGVTCNPFN"}, "B2": {"name": "Deep orange (Vps18) (protein, UniProt Q24314 1-1002)", "chain": "MDTSMPNQPKFLPRIEHNSSGATANSYVATASGNPFETDEEDEIFSRHKMVLRVPSNCTGDLMHLAVSRNWLVCLLGTPERTTLLRFFLPRAIPPGEAVLEKYLSGSGYKITRMFLDPTGHHIIIALVPKSATAGVSPDFLYIHCLESPQAQQLKVRRIEKFKDHEITAVAFNPYHGNESSTGPILLGTSRGLIFETELNPAADGHVQRKQLYDLGLGRPKYPITGLKLLRVPNSSRYIIVVTSPECIYTFQETLKAEERSLQAIFAGYVSGVQEPHCEERKTDLTFSQLRFFAPPNSKYPKQWAWLCGEGIRVGELSIEANSAATLIGNTLINLDFEKTMHLSYGERRLNTPKAFVLTEYHAVLLYADHVRAICLLNQEQVYQEAFDEARVGKPLSIERDELTGSIYVYTVKTVFNLRVTREERNVWRIYLDKGQYELATAHAAEDPEHLQLVLCQRADAAFADGSYQVAADYYAETDKSFEEVCLKFMVLPDKRPIINYVKKRLSRVTTKPMETDELDEDKMNIIKALVIWLIDLYLIQINMPDKDEEWRSSWQTEYDEFMMEAHVLSCTRQNRETVRQLIAEHADPRNMAQFAIAIGDYDEVVAQQLKAECYAEALQTLINQRNPELFYKYAPELITRLPKPTVDALMAQGSRLEVEKLVPTLIIMENREQREQTQRYLEFAIYKLNTTNDAIHNFLLHLYAEHEPKLLMKYLEIQGRDESLVHYDIYYAHKVCTDLDVKEARVFLECMLRKWISAVDLALTFDMKLAKETASRPSDSKIRRKLWLRIAYHDIKGTNDVKKALNLLKECDLLRIEDLLPFFADFEKIDNFKEAICDALRDYNQRIQELQREMAETTEQTDRVTAELQQLRQHSLTVESQDTCEICEMMLLVKPFFIFICGHKFHSDCLEKHVVPLLTKEQCRRLGTLKQQLEAEVQTQAQPQSGALSKQQAMELQRKRAALKTEIEDILAADCLFCGLLISTIDQPFVDDWEQVNVEWE"}, "B3": {"name": "Vps39 (protein, UniProt Q9VEA2 1-876)", "chain": "MHQAYSVHSILKQGVQIESIAAYGNHVILGTRSGQLIMYSVDEETGVDMRMFNKNFSRKPITQMEVIASENLLFVLTDLQVQVCDIRRIESNFAFMHSAPDTKGCTLFTMDVDTPKSTTGRVATVIRVCCAIRRRLVFFFWKEDKLNSLELIIELSDVPRTLCWVGHAVCVGFKDEYVVYDISGKAPKKHNLFLTSSSISRDPCICLIRNNMLGISKDSYLVVVDPSQYKESDGINNSTDVRPAAMDSNSSLTPLLWSSPLLDLVWDEPFAVGRVNNAIEVRSLVGKDTLVQTIPELQKTKFLVHADKGTIFAAATSELWCIRMVEIPIQRQQLLQQKKFQLAIELTQISDEPAADRAQTIRQIHMLYAKELFTNKEFSAAMKEFEKAAIDPYDVIRLFPNLVPEPKPGTEDVTVPTSSTPALEDSDLENAYLALIEYLAWARQREVVKLRDTKSSSKSLLEIIDTTLLKCYLQTNDSLVAPLLRLNQCHLEESEKTLKKHNKISELIILYQMKGKHKEALKLLREQASIEGSVLQGRKRTIRYLQELGGDHLPLIFEFADWVLNDNPEEGLTIFTDELIEVESLPRAKVLDFFISKHKALVIPYLEHVITEWKDGNTLLHNVLLKQYREKVQRLLAQQEKGEEVPELIPMRAKLYKMLEESNDYSPDRLLEEFPTNILLEERALILGRLKKHDNVLSIYIHVLGDVAKATAYAEAHYKEDKHIFHTLIKCILIPPTQPLYDGVPLHPDFSQVNREVALEILNTHATRIDPFEIFEHLPDDMPMPQLEKYLEKSIRKMMADKHEMQMMCGFLEAESTRLENALEEQRNISFELNESSVCSECKKRFQTQSAFVRYPNGHIVHLSCHDRLARAAAQQ"}, "B4": {"name": "Vps16A (protein, UniProt Q9VHG1 1-833)", "chain": "MPIMYNTGEWFKVRPDYYRKVELATPDWPLDLDLEYMWVEVAPYGGPLAVTRDPTKLVPVKGNARPMIRIFDTTGREMGHILWNHGKLIAMGWSDMEELICIQENATVFVYDMFGREKESYSIGDEASVTKIVEGKVFQSSAGTGVAVMTTSGRVFLKQNSSKTERKLPDIPNSSMNCSCWEIVTEGRNSYCLLGRDREVIKLFPGETVGTITANLFEKPHERIIKISVSYNHQHLALYTNTGLLWLGSVDMRQKYCEFDTGRKDMPLQMEWIMNSDNSEADAVVISYPSYLLIVNRNADRSDFPYDPVMFLVAEMDGVRIITQSSHEIIQRLPKCVENIFAVNSQEPASYLFEAQKKFEEKSYKSDEYLSMCREKIDLAVSECIEAASYEFCPETQKSLLRTAYFGKGFIRNHNPDEYMRIMRILRVLNTLRHERIAMPITFKQFSHLNTEVILSRLVFRKHYAIAIQVAKHLNLPESWILEHWAYHKVMNDPNDTEVARKITEKFKNPSVEGISFCNIASKAHQAGRDDLAIKLLELESRASLHVPLLLKMRKFDRAVGSATQSGDTELITQVLLEMKMHMMLSNLHMTIRDHPLALNIYKKIMRESNRAGLYGIYNTEDDQKAIAEYHFQNAIETEGLESNLSMIGNAYAQGRCTLEAELCADTSRLIKLQKTLSTKYNVSLNGLSIHETIQELLLIGELKEAERIRSEFKVPDRRFWWLRILTLSSQHKWEELEKLAKSKKSPIGYDPFVEVCLKQDNVMEARKYIPRCRDNRRVVWYMRANLFNEAIDSAFEQRDVHSLFELQKNQAIVNNGTLLSKVCDCIAMLEGK"}, "B5": {"name": "Carnation (Vps33) (protein, UniProt Q9Y1I2 1-617)", "chain": "MFPHLKGHGQRVNLQLLQEAACRELLQQLDRIEGSKVIVLDETMIGPLDLVTRPKLFADRGIRLLALKPELHLPREVANVVYVMRPRVALMEQLAAHVKAGGRAAAGRQYHILFAPRRSCLCVSQLEVSGVLGSFGNIEELAWNYLPLDVDLVSMEMPNAFRDVSVDGDTSSLYQAAVGLVQLQRLYGRIPKIYGKGEFAHRVWEHAKQLGRDERTLYNGDKGVVDQLILLDRSIDLLSPLATQLTYEGLIDEFYGIRQNKLTLPAENFPSDGALPGGGGSGPRVEESQSLLGDTEKKTILLHSGEQLYAELRNKHFNEVTKLLARKAREIHVQMHATSQDKSVQEIKSFVENLLPQLMAQKKATSEHTAIAGLLHEQVNAVRFADDLAAEQEFMVCADIDKPSAYIEDLIACRVELNRVLRLICMQCHAASGFKEKLLNHYKRELVHVYGLEVLLTISNLEKSGLLHLQTESRAYSVLRKTLHLTVDDNVEIEPKDISYVHSFYAPLTARIVEHSLKPLGWQTLKSQINNLPGPTFEDFQAQLVGIGGRHTVTTVSEGSLLNVPRVVLVCFVGGCTFAEIAALRFLAAQEDNNVEFLIATTKVVNKHSFLDSLMSS"}}, "note": "Changes are numbered by the printed parent chain. These are yes or no findings as the source states them, for the method shown. In cells and extracts the contact can be indirect. Here binding means that the protein was enriched with, or labelled near, the bait; the list need not be complete. For part of these data: No binding means not detected with the bait. Sequences can lack the tags named with a protein."}
{"target": "T1, GST-Arl8Δ17 T34N (GDP-locked form of Drosophila Arl8) (Drosophila melanogaster) (UniProt Q9VHV5)", "T1 sequence": "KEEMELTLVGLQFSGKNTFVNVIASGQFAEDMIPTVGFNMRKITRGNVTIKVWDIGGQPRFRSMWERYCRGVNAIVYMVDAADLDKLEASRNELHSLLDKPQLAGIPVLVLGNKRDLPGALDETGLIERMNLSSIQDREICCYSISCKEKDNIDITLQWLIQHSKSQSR", "experiment": "affinity purification with mass spectrometry; GST-Arl8Δ17 (Q75L or T34N) on Glutathione-Sepharose beads; clarified S2 cell cytosol prepared without detergent (20 mM Tris-HCl pH 8, 110 mM KCl, 5 mM MgCl2, 5 mM β-mercaptoethanol), with GDP or GTPγS, 4°C; eluted with high salt and the opposite nucleotide; only the target purified"}
{"molecule": "B1", "binding": "no binding"}
{"molecule": "B2", "binding": "no binding"}
{"molecule": "B3", "binding": "no binding"}
{"target": "T2, GST-Arl8Δ17 Q75L (GTP-locked form of Drosophila Arl8) (Drosophila melanogaster) (UniProt Q9VHV5)", "T2 sequence": "T1 sequence with N17T, Q58L", "experiment": "affinity purification with mass spectrometry; GST-Arl8Δ17 (Q75L or T34N) on Glutathione-Sepharose beads; clarified S2 cell cytosol prepared without detergent (20 mM Tris-HCl pH 8, 110 mM KCl, 5 mM MgCl2, 5 mM β-mercaptoethanol), with GDP or GTPγS, 4°C; eluted with high salt and the opposite nucleotide; only the target purified"}
{"molecule": "B1", "binding": "binds"}
{"molecule": "B4", "binding": "binds"}
{"molecule": "B2", "binding": "binds"}
{"molecule": "B5", "binding": "binds"}
{"molecule": "B3", "binding": "binds"}
{"target": "T2, GST-Arl8Δ17 Q75L (GTP-locked form of Drosophila Arl8) (Drosophila melanogaster)", "experiment": "affinity purification with mass spectrometry; GST-Arl8Δ17 (Q75L or T34N) on Glutathione-Sepharose beads; clarified S2 cell cytosol prepared without detergent (20 mM Tris-HCl pH 8, 110 mM KCl, 5 mM MgCl2, 5 mM β-mercaptoethanol), with GDP or GTPγS, 4°C; eluted with high salt and the opposite nucleotide; only the target purified", "remark": "another data set of the same source"}
{"molecule": "Acetyl-CoA carboxylase (ACC) (enzyme)", "binding": "binds"}
{"molecule": "Fatty acid synthase (FAS) (enzyme)", "binding": "binds"}
{"molecule": "Suppressor of deltex [Su(dx)] (from UniProt Q9Y0H4 1-949)", "binding": "binds"}
{"molecule": "Cullin 1 (Cul1) (from UniProt Q24311 1-774)", "binding": "binds"}
